Record: PubChem BioAssay AID1259254 (NCATS, 2017)

Screen: 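Finding genes that stop cells copying their DNA twice in one cycle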 (primary screen)
Cells: human HCT116 colorectal cancer cells
Reagents: single siRNA against human genes
Time to read-out: 3 days
Measurement: 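Nuclei stained with Hoechst and imaged; cell-cycle phase assigned by DNA content; G2 share scaled per plate, non-targeting siRNA 0%, GMNN siRNA 100%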
Reading the numbers: G2 robust z-score and G2 cells, % of GMNN control: higher = more G2 cells, more excess DNA replication
Hit rule: 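Active siRNAs have a G2 robust z of 5 or more median absolute deviations over the median, which in these data means about 38% or higher of GMNN control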
Shown is a random part of about 59,000 deposited reagents. In the full data, about 1,550 (2.6%) are marked active. 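G2 share is only a proxy for re-replication; each gene was hit by three separate siRNAs, and active genes were retested.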 A number with no mark means an inactive call. Reagents against one gene are numbered here. Further read-outs or replicates are left out here. Not stated in the record: the amount of reagent.

For ONECUT2 #1, the values are G2 robust z-score -0.343; G2 cells, % of GMNN control 0.551.
ONECUT2 #2 scored G2 robust z-score -1.12; G2 cells, % of GMNN control -4.94.
ONECUT2 #3 scored G2 robust z-score -1.55; G2 cells, % of GMNN control -7.96.
After knock-down of LINC01545 #1 the results were G2 robust z-score 1.31; G2 cells, % of GMNN control 12.2.
With knock-down of LINC01545 #2 the results were G2 robust z-score 2.93; G2 cells, % of GMNN control 23.6.
Knock-down of LINC01545 #3 came out at: G2 robust z-score -0.678; G2 cells, % of GMNN control -1.81.
Knock-down of HAUS2 #1 resulted in: G2 robust z-score -1.02; G2 cells, % of GMNN control -4.18.
With knock-down of HAUS2 #2 the results were G2 robust z-score 2.25; G2 cells, % of GMNN control 18.8.
Depletion of HAUS2 #3 resulted in: G2 robust z-score -0.537; G2 cells, % of GMNN control -0.808.
Depletion of LINC02145 #1 resulted in: G2 robust z-score 0.644; G2 cells, % of GMNN control 7.5.
LINC02145 #2 showed G2 robust z-score -1.21; G2 cells, % of GMNN control -5.52.
Silencing of LINC02145 #3 resulted in: G2 robust z-score -1.37; G2 cells, % of GMNN control -6.64.
MTRFR #1 showed G2 robust z-score -0.523; G2 cells, % of GMNN control -0.71.
For MTRFR #2, the values are G2 robust z-score -0.498; G2 cells, % of GMNN control -0.533.
Against MTRFR #3, the values are G2 robust z-score -0.462; G2 cells, % of GMNN control -0.281.

Copied from the list.
For “G2 robust z-score”, MTRFR #3 shows -0.462
LINC02145 #2, G2 cells, % of GMNN control: -5.52

Further records follow.
Silencing of ACTA1 #1 gave: G2 robust z-score 0.525; G2 cells, % of GMNN control 6.66.
After knock-down of ACTA1 #2 the results were G2 robust z-score 3.62; G2 cells, % of GMNN control 28.4.
ACTA1 #3 scored G2 robust z-score -0.302; G2 cells, % of GMNN control 0.845.
After knock-down of TUBA3E #1, the record shows G2 robust z-score 6.9 (active); G2 cells, % of GMNN control 51.5.
After knock-down of TUBA3E #2 the results were G2 robust z-score -0.957; G2 cells, % of GMNN control -3.76.
After knock-down of TUBA3E #3, the record shows G2 robust z-score -0.925; G2 cells, % of GMNN control -3.54.
Against ASH1L-AS1 #1 the deposit lists G2 robust z-score 0.762; G2 cells, % of GMNN control 8.33.
For ASH1L-AS1 #2, the entry reads G2 robust z-score 0.152; G2 cells, % of GMNN control 4.04.
Against ASH1L-AS1 #3, the entry reads G2 robust z-score -0.628; G2 cells, % of GMNN control -1.45.
